No constants are given. Whether binding was seen depends on the method and setting. In cells and extracts the contact can be indirect. Some entries that bind do so weakly or less than the wild type.
Legend:
[1] = target: T1, breakpoint cluster region (BCR) (rat (endogenous in cultured hippocampal and cortical neurons)) (UniProt F1LXF1); test: co-IP; lysate of cultured rat hippocampal or cortical neurons (50 mM Tris pH 7.5, 1% Triton X-100, 150 mM NaCl, 1 mM EDTA), 2 μg antibody 2 h at 4 °C, protein G beads, Western blot; control conditions or OGD
T1 sequence: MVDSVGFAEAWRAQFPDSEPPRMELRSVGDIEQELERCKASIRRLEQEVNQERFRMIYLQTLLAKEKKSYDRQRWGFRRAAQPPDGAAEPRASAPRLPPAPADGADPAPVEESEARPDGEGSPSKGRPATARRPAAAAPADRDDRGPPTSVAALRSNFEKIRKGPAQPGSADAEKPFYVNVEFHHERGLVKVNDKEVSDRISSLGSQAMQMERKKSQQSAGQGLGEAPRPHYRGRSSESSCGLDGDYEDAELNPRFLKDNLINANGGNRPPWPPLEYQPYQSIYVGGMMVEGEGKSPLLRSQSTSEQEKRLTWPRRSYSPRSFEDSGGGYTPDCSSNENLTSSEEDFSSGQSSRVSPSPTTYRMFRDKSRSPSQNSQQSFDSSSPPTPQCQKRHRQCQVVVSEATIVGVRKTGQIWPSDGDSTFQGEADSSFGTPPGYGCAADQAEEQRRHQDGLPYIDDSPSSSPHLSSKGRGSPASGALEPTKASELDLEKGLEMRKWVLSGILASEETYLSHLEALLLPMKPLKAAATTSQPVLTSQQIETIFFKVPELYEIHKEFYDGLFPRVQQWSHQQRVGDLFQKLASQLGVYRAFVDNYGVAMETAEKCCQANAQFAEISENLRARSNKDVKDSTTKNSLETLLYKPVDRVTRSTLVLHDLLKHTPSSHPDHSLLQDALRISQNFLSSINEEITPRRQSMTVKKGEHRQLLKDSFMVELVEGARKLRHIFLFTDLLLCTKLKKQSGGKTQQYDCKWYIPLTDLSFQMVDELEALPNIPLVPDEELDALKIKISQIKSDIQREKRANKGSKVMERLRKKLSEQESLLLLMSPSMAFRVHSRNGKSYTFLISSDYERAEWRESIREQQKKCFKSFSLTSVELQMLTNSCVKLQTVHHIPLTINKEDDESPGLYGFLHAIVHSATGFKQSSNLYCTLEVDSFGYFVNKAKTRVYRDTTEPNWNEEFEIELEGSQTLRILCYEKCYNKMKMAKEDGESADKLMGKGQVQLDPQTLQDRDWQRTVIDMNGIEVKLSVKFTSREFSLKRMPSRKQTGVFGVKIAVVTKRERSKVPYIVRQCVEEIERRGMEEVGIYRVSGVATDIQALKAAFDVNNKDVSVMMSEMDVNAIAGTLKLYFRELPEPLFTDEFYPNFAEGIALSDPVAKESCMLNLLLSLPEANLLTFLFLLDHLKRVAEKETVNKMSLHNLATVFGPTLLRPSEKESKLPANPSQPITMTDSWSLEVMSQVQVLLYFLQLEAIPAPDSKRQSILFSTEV

[2] = target: T1, breakpoint cluster region (BCR) (rat (endogenous in cultured hippocampal and cortical neurons)); test: co-IP; lysate of hippocampal neurons transduced with Sindbis virus expressing GFP (control) or PHCCEx-myc for 12 h; Tiam1 IP and BCR IP, blotted for NR1

- binding [1]: binds
- binding [2]: binds
Substance: NMDA receptor subunit NR1 (from UniProt P35439 19-938)
